# This is one part of the list. Construct or isoform of the protein are uncertain.
# Molecular target: T1, ETS1 (UniProt P14921)
# T1 sequence: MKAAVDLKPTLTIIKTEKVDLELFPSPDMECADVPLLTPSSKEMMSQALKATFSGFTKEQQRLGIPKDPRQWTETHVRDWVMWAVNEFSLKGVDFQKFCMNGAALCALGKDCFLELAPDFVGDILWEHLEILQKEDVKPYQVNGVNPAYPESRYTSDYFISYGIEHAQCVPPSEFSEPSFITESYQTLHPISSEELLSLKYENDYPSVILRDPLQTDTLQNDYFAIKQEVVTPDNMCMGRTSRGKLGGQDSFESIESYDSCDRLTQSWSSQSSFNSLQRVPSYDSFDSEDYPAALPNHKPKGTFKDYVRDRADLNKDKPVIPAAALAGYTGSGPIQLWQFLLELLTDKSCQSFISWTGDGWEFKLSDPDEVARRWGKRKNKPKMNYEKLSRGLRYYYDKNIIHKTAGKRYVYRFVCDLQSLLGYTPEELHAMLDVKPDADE
# Assay: DAPPL (digital affinity profiling via proximity ligation, sequencing)
# Conditions: 10 mM Tris-HCl pH 7.5, 50 mM NaCl, 1 mM DTT, 4% glycerol, room temperature, 30 min; GST-TFs on glutathione beads, 16-mer random dsDNA library, 0.1% …; high values mean tight binding; double strand, one strand shown; scale: fold enrichment (6-mer frequency, TF over GST control)
row,Sequence,binding signal
1,TTAAGG,1.19
2,ATCGCT,1.08
3,CCCAAC,1.1
4,GGAAAA,1.24
5,AAAAAT,1.38
6,TCCACG,1.09
7,AACTAG,1.08
8,TCCAAC,1.22
9,CGTACG,1
10,ATCCAC,1.18
11,CCCTCA,1.16
12,TTGCCC,1.38
13,TGGACT,1.18
14,CAAGAT,1.13
15,AATACG,1.26
16,GATATG,1.14
17,CTCTCT,1.58
18,TGGGTT,1.15
19,TCACTA,1.16
20,CCCTGC,1.26

row,Sequence,binding signal
1,CCTTAT,1.58
2,CTGTTC,1.41
3,CTTTCG,1.24
4,TTCTTG,1.47
5,CAAATG,1.13
6,AATCCA,1.08
7,TTCTAA,1.19
8,TTTCTA,1.34
9,TGGGCT,1.39
10,CCCGAA,1.41
11,AGCAAC,1.09
12,ATCCTA,1.34
13,AGTGGC,1.28
14,CCATAC,1.21
15,ATTCCA,1.23
16,TTGGTC,1.12
17,TGTGCC,1.12
18,TAACGG,0.885
19,ACCGCT,1.01
20,TATGTG,1.17

# A different layout for some results above.
row | Sequence | binding signal
9 | CGTACG | 1
11 | CCCTCA | 1.16

# Reference: publication PMC7862700
